Measurements from paper PMC7819943, “Rice protein-binding microarrays: a tool to detect cis-acting elements near promoter regions in rice”.
This is one part of the list.

The chains behind the UniProt entries cited, without tags or fusion partners.
UniProt Q0JBA9, entry or part of it: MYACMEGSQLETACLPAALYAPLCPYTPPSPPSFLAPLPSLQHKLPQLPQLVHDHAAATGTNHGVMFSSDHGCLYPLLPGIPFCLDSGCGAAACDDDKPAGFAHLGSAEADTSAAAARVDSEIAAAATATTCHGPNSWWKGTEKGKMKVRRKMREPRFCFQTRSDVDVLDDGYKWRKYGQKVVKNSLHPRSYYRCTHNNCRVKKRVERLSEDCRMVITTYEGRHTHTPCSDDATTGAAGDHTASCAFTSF

Target: OsWRKY34 (Oryza sativa, UniProt Q0JBA9 1-250)
Assay: protein-binding microarray (RPBM); PBS, 2% BSA, 51.3 ng/ul salmon testes DNA, 50 uM zinc acetate, 200 nM TF, 25 C, 1 h; high values mean tight binding
Settings: protein: recombinant; tags: N-terminal polyhistidine and DsRed monomer fusion (pET32a); label: CyDye5-dUTP incorporated in the synthesized complementary strand; 3' TTTTT single-stranded linker to array surface; dsDNA, one strand shown
How it was run: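 Per-feature fluorescence intensity (arbitrary units), read on an Axon 4000B scanner, is the binding signal. Transcription factors carrying an N-terminal polyhistidine tag and DsRed fusion were expressed in E. coli BL21-CodonPlus and purified on Ni–NTA. A custom Agilent array, made double-stranded by primer extension with Cy5-dUTP and blocked with 2% BSA, was incubated with 200 nM protein in PBS, 2% BSA, salmon testes DNA and 50 µM zinc acetate at 25 °C for 1 h and then washed.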

Sequence	binding signal
ATCTCATCTCATCGACCACACCTGCATCATCAATCTGCCTCGGAGTCACCTAGTGCAG	10800 fluorescence intensity (a.u.)
GCTGCACGTCGTTGGAGTACTTCCTAATCCCAACTGTTACCGGAGTCACCTAGTGCAG	12300 fluorescence intensity (a.u.)
GCACGGACATGCGAGGCCCACATATATTTCTTCTCGCCTACGGAGTCACCTAGTGCAG	9610 fluorescence intensity (a.u.)
GTAGCATGCTTCTATCCTGTCCCGGTGTTTGTCGTACATTCGGAGTCACCTAGTGCAG	10200 fluorescence intensity (a.u.)
TATCCCACGTACAAGCATCACCGGCCTTATTTTATTGTTTCGGAGTCACCTAGTGCAG	8800 fluorescence intensity (a.u.)
AGTTTCTGTTGTTGAGGAGAGTGGCTAGGAAATATTAACACGGAGTCACCTAGTGCAG	8810 fluorescence intensity (a.u.)
TCACGGGTGAACACGATCCCCTGATAACTTCCATCCAGTCCGGAGTCACCTAGTGCAG	8600 fluorescence intensity (a.u.)
CTCGTTGGTTTGCAGCTTTACATCGCTTTTTGTATAATTACGGAGTCACCTAGTGCAG	9490 fluorescence intensity (a.u.)
TACTTTTTTCATCTGGGTCCCTTGCCGCCCTCTATTGGGGCGGAGTCACCTAGTGCAG	10400 fluorescence intensity (a.u.)
TCCAAATATTAATCCCACACAAATTAAAATCCAATCCATTCGGAGTCACCTAGTGCAG	8160 fluorescence intensity (a.u.)
TGCCATTGTGCCTTTCTGCGTGCTCACTACTAGCCAGTGCCGGAGTCACCTAGTGCAG	10600 fluorescence intensity (a.u.)
GAATTTGACACCACCACCATTATGTGGGTCCCCGCAAATACGGAGTCACCTAGTGCAG	8250 fluorescence intensity (a.u.)
TTGTGACATTTTGATGCACCTTATGGTCACGCGCGTATTCCGGAGTCACCTAGTGCAG	12500 fluorescence intensity (a.u.)
AGGGTGTCGTATGGGGTGTTCGGGCACTAATAAAAAAACTCGGAGTCACCTAGTGCAG	9220 fluorescence intensity (a.u.)
ACCGAGGTGGGAGGTGGGTTTTGGGCCTTGGTAAGGAGGGCGGAGTCACCTAGTGCAG	13500 fluorescence intensity (a.u.)
GCATCCATCGGAATTCTCGTCGACCACCGCAACCGCCATGCGGAGTCACCTAGTGCAG	8580 fluorescence intensity (a.u.)
AGAAATGGTGGGGTTCTTCAGCCTCTGTTCTTCCACTCATCGGAGTCACCTAGTGCAG	8030 fluorescence intensity (a.u.)
GTTGGTTGGTTGCAACGGCGTGGGATATTGGTAGGCTGGTCGGAGTCACCTAGTGCAG	11800 fluorescence intensity (a.u.)
CGATTCGCGCCGCCGAGAGTTCTGTGTCTCTCTCTTCTTCCGGAGTCACCTAGTGCAG	10300 fluorescence intensity (a.u.)
GCTTGCTTGGTTGGTTGGTGGAGCTTGGGAGTTGAGGTCACGGAGTCACCTAGTGCAG	11500 fluorescence intensity (a.u.)
ATTAGTCCATGCCATGTGGGCCCTGTGTGTTTGGGTGCTGCGGAGTCACCTAGTGCAG	9830 fluorescence intensity (a.u.)

Part of the list above, reformatted:

| Sequence | binding signal |
| --- | --- |
| TCCAAATATTAATCCCACACAAATTAAAATCCAATCCATTCGGAGTCACCTAGTGCAG | 8160 fluorescence intensity (a.u.) |
| TGCCATTGTGCCTTTCTGCGTGCTCACTACTAGCCAGTGCCGGAGTCACCTAGTGCAG | 10600 fluorescence intensity (a.u.) |
| GAATTTGACACCACCACCATTATGTGGGTCCCCGCAAATACGGAGTCACCTAGTGCAG | 8250 fluorescence intensity (a.u.) |
| TTGTGACATTTTGATGCACCTTATGGTCACGCGCGTATTCCGGAGTCACCTAGTGCAG | 12500 fluorescence intensity (a.u.) |

Next entries follow.

Sequence	binding signal
CGTCGCTTCTCTTCTTGAAGACGTTGTTTTGGCATCCTATCGGAGTCACCTAGTGCAG	8040 fluorescence intensity (a.u.)
ACAAGTCACTCACTGCTTCACTGCATTCAGTTTACTCTTCCGGAGTCACCTAGTGCAG	11300 fluorescence intensity (a.u.)
TGCTGCTGCTGCTACTAGTCTTTATCCTTTGCTTTCCACTCGGAGTCACCTAGTGCAG	9860 fluorescence intensity (a.u.)
CTATTTTGCTTCCCTGGTTGTCGTGCCCGTCGTGCTGAGGCGGAGTCACCTAGTGCAG	8380 fluorescence intensity (a.u.)
CCATTTCCTTATCCAGTTATCTGGTACTCCTACCTGCTTACGGAGTCACCTAGTGCAG	9100 fluorescence intensity (a.u.)
CGCATCCACCGCCCGCGCGCGCACCAAACCGAGCTCCGATCGGAGTCACCTAGTGCAG	8430 fluorescence intensity (a.u.)
AGGGATGAGGCTATTAAGTGTTTTGTTTGGTTGGGAGACACGGAGTCACCTAGTGCAG	9550 fluorescence intensity (a.u.)
ATTGGAGTGGGGCTCTTTCTTCTTTCGTTTCTATTCATGTCGGAGTCACCTAGTGCAG	11300 fluorescence intensity (a.u.)
ATAACTGATTAGTGGTTGTTTAGTAGCTGTTGGGGTTTACCGGAGTCACCTAGTGCAG	11000 fluorescence intensity (a.u.)
TCTCTTCTCCTTCCATTTTTCTTGTGCACTTCTCTTTCCCCGGAGTCACCTAGTGCAG	8450 fluorescence intensity (a.u.)
TTAATACTTGCTTTATTGTGCAGAGGTGGGCTGTTGACATCGGAGTCACCTAGTGCAG	13600 fluorescence intensity (a.u.)
ATCCTGTATCGTCCAGAATGCTTCTTCCATCCTAATCACCCGGAGTCACCTAGTGCAG	9220 fluorescence intensity (a.u.)
GCGTGGGTTCAAATCCCACAGCTGTCATAATTTTTCTTCCCGGAGTCACCTAGTGCAG	8270 fluorescence intensity (a.u.)
GAGGACAACAGACGGTCAAGATCTTCCCAACATATCCCCACGGAGTCACCTAGTGCAG	8500 fluorescence intensity (a.u.)
TCCTCTCCCGCCTCGCCCCGTCGACTTCCTCCCCAACACGCGGAGTCACCTAGTGCAG	10800 fluorescence intensity (a.u.)
ATTTGTTCTGCAATCTACATATGGTTCTTGTATTTCATTTCGGAGTCACCTAGTGCAG	12100 fluorescence intensity (a.u.)
CCGACTGTCTGCTGCTTCACATGTGGTTGTGTTTGCAACCCGGAGTCACCTAGTGCAG	8390 fluorescence intensity (a.u.)
GCCACACACACAATTACTACTACTTCTACGTACATCATCACGGAGTCACCTAGTGCAG	8330 fluorescence intensity (a.u.)
CCACCACCTCACATAATTTCCGTCCACACCTTTCGAGGCTCGGAGTCACCTAGTGCAG	9090 fluorescence intensity (a.u.)
AAGGGCTCGATGATTCTTCGTTTTGGTAAGCTACTCCTATCGGAGTCACCTAGTGCAG	8080 fluorescence intensity (a.u.)
CGCTTCTTTCTACTGTGTGTCTGTACTCTTGTGTGTTCCACGGAGTCACCTAGTGCAG	13100 fluorescence intensity (a.u.)

Sequence	binding signal
TCTCATGAACTTGGGCCGAGCTTGTGACATGTCCCGTCTTCGGAGTCACCTAGTGCAG	9470 fluorescence intensity (a.u.)
ATTGTTTGGGGTACTTTTTGCATCTGGTTCCCTTGCCGCCCGGAGTCACCTAGTGCAG	8900 fluorescence intensity (a.u.)
GCTATTTTCTTGCCCATGATGATCTATTAATGCTGATTCTCGGAGTCACCTAGTGCAG	9730 fluorescence intensity (a.u.)
CATACCTTCCGTATTAGTAGAAGGTACTAAAATTGACATTCGGAGTCACCTAGTGCAG	10800 fluorescence intensity (a.u.)
GCGGATTTCCTTTCTAAACGTGCCAACGATGTGTTCTTGTCGGAGTCACCTAGTGCAG	8250 fluorescence intensity (a.u.)
GGCGTAGTTCAGTCTCTGGCTCCTTCGGCAACGACCTCAACGGAGTCACCTAGTGCAG	9070 fluorescence intensity (a.u.)
ACCTCTTTTGACTCGTTCAATTCCTTTTCTTTTTTTGGCACGGAGTCACCTAGTGCAG	8680 fluorescence intensity (a.u.)
GGATTACTAGTAGTTTTCTTGTTCTTTTCTTCATGTGCGTCGGAGTCACCTAGTGCAG	13400 fluorescence intensity (a.u.)
AAACTTTCTTACTGATGATTTAGTGCTTAGAGCTTCTTCACGGAGTCACCTAGTGCAG	8750 fluorescence intensity (a.u.)
CTCCGCCGCCGTCCCGCCCGCCACCTCCCCGCACCGCGGCCGGAGTCACCTAGTGCAG	8890 fluorescence intensity (a.u.)
CGATACACCGGCGCTCTCCGGTCCCATCACCATCGCCATGCGGAGTCACCTAGTGCAG	8800 fluorescence intensity (a.u.)
TAGTTGTTATCTTCGCTTTGGGTGGTTGGTAGAAGGGACCCGGAGTCACCTAGTGCAG	10100 fluorescence intensity (a.u.)
TTCTTTTTTTGTGGGGAGAGGCGGGCTGTTTTTTTCTTGCCGGAGTCACCTAGTGCAG	15900 fluorescence intensity (a.u.)
CCTCAGGTCTCTATAAGCTATAAAGGGTTTTGGTTGGATACGGAGTCACCTAGTGCAG	8500 fluorescence intensity (a.u.)
TTCCCAGTCTTTGGACCGTGGTTCAGACCTTAGCTTCACTCGGAGTCACCTAGTGCAG	9410 fluorescence intensity (a.u.)
CGCCACTGCCTATTCTATCTATATCGTGTGCACTTGAGGTCGGAGTCACCTAGTGCAG	8280 fluorescence intensity (a.u.)
TACTCAATTTTTTTTTCTGCCTTTTACCATCTCTTTAATACGGAGTCACCTAGTGCAG	8110 fluorescence intensity (a.u.)
TAATATTGGTACGCGTCGTCTCCTTCCTTCGTCTCGCTCGCGGAGTCACCTAGTGCAG	12000 fluorescence intensity (a.u.)
GTGACCGTTCCCTGCACCCTGTCTACAAGAGCCATACCTCCGGAGTCACCTAGTGCAG	8250 fluorescence intensity (a.u.)
TTGTCAGTTTTCTCTAAACCACAGTAATTAGTCAGTTTCACGGAGTCACCTAGTGCAG	8420 fluorescence intensity (a.u.)
ATTTCGGCGACACGAGGACACGCCGATTTCCCCGCGGACCCGGAGTCACCTAGTGCAG	10300 fluorescence intensity (a.u.)

Sequence	binding signal
TTTTATCTCCTATTATCTCACCTGCTCACTTTTTTATCCACGGAGTCACCTAGTGCAG	8470 fluorescence intensity (a.u.)
TATTTAGTGCTTTTTCACTGGCGCTTAATCTGTTAGTTACCGGAGTCACCTAGTGCAG	9490 fluorescence intensity (a.u.)
CTCACTTCTTTACCTTTTCCTTTCTTTCAACTATTTTCTCCGGAGTCACCTAGTGCAG	9990 fluorescence intensity (a.u.)
ATGACTTTTTTTTCCTATTCCTTCGTTTTAAAATCCACATCGGAGTCACCTAGTGCAG	9120 fluorescence intensity (a.u.)
ATTCTATCCATCATAATCATTTGAATAATTATTTGGTATTCGGAGTCACCTAGTGCAG	8630 fluorescence intensity (a.u.)
AGGGGTGCTTGAGAAAAACTAACTTCGTTGACCTGAAGAACGGAGTCACCTAGTGCAG	11600 fluorescence intensity (a.u.)
TGACATTTGCCATCCGTACCGTGATCCTCCTTTTACTGCTCGGAGTCACCTAGTGCAG	11300 fluorescence intensity (a.u.)
ACCAAATTTAACTTACATGCATGATATCTTTATTTATTATCGGAGTCACCTAGTGCAG	8940 fluorescence intensity (a.u.)
GGCAGCCACTATTTGTTGGTCATTATGGCTTTGCAGGAATCGGAGTCACCTAGTGCAG	9080 fluorescence intensity (a.u.)
GGTCCATCCATCCTGCCGTCTTCTACGTACTTCGTTGGATCGGAGTCACCTAGTGCAG	12900 fluorescence intensity (a.u.)
TGTTGTTCTAGTGTTTAGCGTGCGTTCCAGTTAATTAATCCGGAGTCACCTAGTGCAG	9010 fluorescence intensity (a.u.)
TTTAGTCTATTGTTGAGATGTACATGTTTTATATTTTATACGGAGTCACCTAGTGCAG	9430 fluorescence intensity (a.u.)
GGCCACTACTTCTCTGGGCTCTGGGCCTCTGGCTGCTCATCGGAGTCACCTAGTGCAG	9160 fluorescence intensity (a.u.)
CTCACCGCACCCGTGTCCTCCTTCCACACCGCAATCTCGCCGGAGTCACCTAGTGCAG	9570 fluorescence intensity (a.u.)
TACCTACGATTAGATTTTGCTGGCCCGTGCATGCCTCCTACGGAGTCACCTAGTGCAG	8750 fluorescence intensity (a.u.)
TATGTGTTTTTGTTTATTTTTTTGTTCGTCTAACATCAAACGGAGTCACCTAGTGCAG	11100 fluorescence intensity (a.u.)
AGCAGGTCATAAAGAAATCTTGAACTACGTAAGCACTGTACGGAGTCACCTAGTGCAG	8170 fluorescence intensity (a.u.)
TCCATTCATTCACTTCATGCATTCATTTCATACTCTATTACGGAGTCACCTAGTGCAG	16100 fluorescence intensity (a.u.)
AAACTCCCAACGCCTCGCTCATCTCGATCTCCATCTCCAACGGAGTCACCTAGTGCAG	8470 fluorescence intensity (a.u.)
TATGTTATCATTTTCTTTCGATTTACTTATAACTATTTATCGGAGTCACCTAGTGCAG	8600 fluorescence intensity (a.u.)
TCTGGCCCAAGCCCAGGTTGTGGCCTGGGGAGGGGAAGTGCGGAGTCACCTAGTGCAG	8170 fluorescence intensity (a.u.)
